Data taken from the supplement of paper PMC10849652.
The other results are listed elsewhere or left out.

Sequences of proteins named here, by UniProt entry; tags and fusion partners are left off. A change or cut given only in a name is not applied to a line headed by its entry.
UniProt A4D2B0: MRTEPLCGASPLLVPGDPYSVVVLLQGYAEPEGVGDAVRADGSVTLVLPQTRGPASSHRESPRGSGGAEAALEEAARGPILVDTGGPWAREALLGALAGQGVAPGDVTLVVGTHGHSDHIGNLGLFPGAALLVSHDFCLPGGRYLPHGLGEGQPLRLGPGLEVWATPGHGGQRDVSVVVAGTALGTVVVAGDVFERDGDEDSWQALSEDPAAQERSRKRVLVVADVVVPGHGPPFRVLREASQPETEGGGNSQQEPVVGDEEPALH
UniProt Q8NBP5: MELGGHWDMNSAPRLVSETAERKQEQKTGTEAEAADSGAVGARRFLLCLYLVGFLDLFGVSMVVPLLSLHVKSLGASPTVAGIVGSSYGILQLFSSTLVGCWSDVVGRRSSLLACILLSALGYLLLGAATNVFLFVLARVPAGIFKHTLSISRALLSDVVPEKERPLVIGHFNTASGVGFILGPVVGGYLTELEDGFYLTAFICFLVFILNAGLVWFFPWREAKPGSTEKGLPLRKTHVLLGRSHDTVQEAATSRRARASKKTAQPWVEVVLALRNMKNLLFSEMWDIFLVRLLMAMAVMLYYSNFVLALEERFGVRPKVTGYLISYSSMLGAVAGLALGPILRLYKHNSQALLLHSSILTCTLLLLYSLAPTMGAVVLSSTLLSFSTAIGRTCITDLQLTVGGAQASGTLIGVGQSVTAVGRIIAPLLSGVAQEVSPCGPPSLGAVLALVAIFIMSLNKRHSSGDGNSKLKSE
UniProt Q9P086: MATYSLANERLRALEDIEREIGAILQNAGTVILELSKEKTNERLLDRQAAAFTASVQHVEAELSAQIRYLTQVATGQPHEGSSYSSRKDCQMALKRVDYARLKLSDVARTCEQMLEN
UniProt Q6ZN04: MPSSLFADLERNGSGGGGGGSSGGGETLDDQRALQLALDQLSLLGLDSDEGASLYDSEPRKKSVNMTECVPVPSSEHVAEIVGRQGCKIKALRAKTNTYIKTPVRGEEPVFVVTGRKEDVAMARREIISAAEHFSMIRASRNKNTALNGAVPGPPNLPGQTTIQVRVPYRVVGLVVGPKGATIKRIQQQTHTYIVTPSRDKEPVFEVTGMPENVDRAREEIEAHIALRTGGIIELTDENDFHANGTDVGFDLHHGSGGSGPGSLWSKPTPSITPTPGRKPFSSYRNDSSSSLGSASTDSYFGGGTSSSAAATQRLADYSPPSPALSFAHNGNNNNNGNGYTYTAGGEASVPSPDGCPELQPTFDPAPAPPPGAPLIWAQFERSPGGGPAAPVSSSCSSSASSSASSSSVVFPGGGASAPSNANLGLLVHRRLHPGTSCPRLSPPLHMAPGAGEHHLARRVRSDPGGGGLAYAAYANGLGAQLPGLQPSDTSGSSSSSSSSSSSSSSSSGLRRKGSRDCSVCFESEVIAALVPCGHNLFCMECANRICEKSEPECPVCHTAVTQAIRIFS
UniProt Q9NS73: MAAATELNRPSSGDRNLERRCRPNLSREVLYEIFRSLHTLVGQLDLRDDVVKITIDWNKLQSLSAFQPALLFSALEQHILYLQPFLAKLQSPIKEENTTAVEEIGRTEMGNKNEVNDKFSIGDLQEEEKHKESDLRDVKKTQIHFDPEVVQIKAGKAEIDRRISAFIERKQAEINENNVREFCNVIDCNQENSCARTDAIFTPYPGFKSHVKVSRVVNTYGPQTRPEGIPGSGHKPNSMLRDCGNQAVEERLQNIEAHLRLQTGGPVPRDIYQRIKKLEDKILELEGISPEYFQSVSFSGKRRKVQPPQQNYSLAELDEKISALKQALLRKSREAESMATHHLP
UniProt Q86YT6, whole entry, looked up: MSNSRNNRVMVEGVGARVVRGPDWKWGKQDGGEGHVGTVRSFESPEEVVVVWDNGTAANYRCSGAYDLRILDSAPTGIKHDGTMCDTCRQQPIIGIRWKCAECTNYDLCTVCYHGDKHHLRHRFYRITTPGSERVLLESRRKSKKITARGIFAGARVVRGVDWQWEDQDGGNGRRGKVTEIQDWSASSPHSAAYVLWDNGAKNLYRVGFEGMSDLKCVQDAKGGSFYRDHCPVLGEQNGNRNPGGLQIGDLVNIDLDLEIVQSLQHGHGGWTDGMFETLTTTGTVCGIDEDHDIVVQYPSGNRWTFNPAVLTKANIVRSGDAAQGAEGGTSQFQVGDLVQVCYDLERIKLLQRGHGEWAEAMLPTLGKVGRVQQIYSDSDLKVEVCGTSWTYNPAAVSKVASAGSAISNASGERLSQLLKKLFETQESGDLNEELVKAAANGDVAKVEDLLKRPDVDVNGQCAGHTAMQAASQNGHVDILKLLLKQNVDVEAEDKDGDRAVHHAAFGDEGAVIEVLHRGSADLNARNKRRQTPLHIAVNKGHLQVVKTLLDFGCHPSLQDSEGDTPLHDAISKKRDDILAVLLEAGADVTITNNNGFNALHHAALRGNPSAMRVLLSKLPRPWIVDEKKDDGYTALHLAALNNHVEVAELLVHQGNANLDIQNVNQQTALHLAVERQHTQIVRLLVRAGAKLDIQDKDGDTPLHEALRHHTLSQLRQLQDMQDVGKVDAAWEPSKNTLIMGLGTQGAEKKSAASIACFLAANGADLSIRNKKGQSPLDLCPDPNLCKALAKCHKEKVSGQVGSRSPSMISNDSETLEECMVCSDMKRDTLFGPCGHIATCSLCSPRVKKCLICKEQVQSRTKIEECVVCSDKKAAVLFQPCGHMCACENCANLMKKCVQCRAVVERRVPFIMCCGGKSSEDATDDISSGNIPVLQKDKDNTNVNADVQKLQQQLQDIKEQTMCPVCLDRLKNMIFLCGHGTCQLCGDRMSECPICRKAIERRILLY
UniProt Q9Y6X3: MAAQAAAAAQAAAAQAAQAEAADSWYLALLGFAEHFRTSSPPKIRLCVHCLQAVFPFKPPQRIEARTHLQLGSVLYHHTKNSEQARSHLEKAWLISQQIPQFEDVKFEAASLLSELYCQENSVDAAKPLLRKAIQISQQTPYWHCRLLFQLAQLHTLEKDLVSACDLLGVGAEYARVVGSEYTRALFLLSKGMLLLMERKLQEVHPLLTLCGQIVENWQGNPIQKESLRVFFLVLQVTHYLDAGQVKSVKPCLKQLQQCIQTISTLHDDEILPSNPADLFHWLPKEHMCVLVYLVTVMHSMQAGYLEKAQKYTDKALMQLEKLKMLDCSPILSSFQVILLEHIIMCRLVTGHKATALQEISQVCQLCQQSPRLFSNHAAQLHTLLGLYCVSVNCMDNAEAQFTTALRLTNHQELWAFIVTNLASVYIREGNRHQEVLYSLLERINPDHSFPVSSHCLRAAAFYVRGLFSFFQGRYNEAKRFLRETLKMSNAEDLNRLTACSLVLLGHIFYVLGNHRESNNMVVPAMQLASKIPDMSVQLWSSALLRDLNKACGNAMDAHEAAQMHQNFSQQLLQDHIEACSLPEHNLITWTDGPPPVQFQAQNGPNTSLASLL
MCTS2P, A0A3B3IRV3, UniProt A0A3B3IRV3, whole entry, looked up: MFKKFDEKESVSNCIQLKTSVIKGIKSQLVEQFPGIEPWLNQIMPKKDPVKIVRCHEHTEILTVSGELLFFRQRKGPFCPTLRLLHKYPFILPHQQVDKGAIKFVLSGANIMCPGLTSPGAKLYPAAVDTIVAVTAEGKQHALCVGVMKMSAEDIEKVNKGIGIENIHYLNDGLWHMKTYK
UniProt Q13503: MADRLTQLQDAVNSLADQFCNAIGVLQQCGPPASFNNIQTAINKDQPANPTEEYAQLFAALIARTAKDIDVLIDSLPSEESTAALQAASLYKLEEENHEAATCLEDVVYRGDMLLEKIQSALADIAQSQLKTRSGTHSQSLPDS
UniProt O60291: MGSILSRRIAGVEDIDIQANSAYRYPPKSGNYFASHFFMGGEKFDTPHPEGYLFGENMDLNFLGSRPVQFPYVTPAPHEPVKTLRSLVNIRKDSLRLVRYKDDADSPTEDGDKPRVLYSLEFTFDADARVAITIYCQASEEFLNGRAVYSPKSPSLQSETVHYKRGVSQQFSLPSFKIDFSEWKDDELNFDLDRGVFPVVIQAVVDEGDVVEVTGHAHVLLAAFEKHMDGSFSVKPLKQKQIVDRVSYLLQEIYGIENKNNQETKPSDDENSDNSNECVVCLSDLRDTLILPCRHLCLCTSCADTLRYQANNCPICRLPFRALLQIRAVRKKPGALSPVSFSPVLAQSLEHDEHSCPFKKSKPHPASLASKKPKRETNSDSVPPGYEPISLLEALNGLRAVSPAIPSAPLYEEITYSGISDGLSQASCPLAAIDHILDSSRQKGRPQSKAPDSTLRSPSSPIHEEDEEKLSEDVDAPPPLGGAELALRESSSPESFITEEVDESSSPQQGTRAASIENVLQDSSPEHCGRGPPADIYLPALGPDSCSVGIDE
UniProt Q9NX70: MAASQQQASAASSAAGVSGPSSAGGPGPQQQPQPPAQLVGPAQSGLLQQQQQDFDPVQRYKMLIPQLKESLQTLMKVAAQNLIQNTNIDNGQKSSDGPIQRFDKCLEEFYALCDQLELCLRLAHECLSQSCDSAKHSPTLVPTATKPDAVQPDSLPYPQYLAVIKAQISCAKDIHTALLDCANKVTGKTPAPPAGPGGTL
UniProt A0JLT2: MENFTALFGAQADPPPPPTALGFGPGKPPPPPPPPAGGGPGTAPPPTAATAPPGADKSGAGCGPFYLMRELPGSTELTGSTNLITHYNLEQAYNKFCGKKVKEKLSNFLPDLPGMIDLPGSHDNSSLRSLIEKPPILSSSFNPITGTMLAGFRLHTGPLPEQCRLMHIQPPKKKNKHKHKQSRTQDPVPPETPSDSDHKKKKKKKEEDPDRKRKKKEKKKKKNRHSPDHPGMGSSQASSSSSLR
UniProt P48740: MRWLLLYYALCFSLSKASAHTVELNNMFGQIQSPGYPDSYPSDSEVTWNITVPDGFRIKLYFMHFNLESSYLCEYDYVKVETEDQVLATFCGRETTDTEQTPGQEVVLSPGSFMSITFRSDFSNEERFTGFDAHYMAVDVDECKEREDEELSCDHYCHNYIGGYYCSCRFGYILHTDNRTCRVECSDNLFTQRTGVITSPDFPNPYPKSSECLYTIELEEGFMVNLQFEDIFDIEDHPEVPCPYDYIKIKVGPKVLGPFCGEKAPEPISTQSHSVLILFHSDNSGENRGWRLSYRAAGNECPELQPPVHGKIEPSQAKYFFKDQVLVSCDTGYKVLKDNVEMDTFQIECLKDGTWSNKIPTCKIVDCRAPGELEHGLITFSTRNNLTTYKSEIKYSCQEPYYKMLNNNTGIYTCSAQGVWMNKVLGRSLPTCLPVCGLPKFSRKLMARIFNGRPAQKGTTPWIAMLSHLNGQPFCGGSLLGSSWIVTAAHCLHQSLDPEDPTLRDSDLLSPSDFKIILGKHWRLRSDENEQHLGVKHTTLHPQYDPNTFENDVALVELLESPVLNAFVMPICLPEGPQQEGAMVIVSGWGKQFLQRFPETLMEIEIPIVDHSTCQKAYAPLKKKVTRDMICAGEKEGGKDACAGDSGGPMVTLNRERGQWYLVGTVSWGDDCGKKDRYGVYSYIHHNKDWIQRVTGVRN
UniProt O14770: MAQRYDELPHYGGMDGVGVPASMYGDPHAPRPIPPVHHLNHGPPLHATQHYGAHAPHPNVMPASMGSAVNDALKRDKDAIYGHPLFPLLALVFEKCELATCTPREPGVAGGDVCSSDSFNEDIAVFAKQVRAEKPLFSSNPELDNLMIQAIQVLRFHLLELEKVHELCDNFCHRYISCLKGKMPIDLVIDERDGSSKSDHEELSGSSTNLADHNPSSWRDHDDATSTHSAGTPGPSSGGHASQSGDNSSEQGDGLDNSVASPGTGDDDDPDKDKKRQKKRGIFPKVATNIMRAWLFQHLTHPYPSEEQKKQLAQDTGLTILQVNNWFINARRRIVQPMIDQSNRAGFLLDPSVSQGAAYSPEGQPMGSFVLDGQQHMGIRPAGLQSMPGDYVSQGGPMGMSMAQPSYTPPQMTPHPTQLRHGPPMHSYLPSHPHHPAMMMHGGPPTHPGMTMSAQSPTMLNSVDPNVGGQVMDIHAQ
UniProt Q5U5Q3: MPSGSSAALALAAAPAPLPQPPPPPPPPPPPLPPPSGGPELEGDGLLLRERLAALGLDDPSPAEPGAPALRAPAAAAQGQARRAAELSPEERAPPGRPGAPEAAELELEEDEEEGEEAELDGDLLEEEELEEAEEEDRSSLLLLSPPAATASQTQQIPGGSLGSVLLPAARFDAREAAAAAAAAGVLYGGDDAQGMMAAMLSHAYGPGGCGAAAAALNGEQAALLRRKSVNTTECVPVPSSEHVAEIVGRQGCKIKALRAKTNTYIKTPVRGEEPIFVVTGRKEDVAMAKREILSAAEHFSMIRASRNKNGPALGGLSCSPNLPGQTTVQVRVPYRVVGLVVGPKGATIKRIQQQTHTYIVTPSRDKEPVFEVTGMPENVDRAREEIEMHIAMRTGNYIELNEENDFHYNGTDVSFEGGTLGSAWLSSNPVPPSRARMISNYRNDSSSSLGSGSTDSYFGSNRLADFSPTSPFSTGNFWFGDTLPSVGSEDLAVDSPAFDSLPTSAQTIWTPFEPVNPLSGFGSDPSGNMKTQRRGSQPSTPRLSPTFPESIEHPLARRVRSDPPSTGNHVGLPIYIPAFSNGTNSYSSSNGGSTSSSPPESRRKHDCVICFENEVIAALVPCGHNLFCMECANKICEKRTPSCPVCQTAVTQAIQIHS

Key:
Assay in all cases: log2 fold change, soluble protein after heating vs DMSO (PISA); higher = thermal stabilisation; K562 cells, 10 uM, 30 min; active = over 0.2 and 3.5 SD of the protein, either way, in both replicates (recomputed)
Tubastatin A = compound: CN1CCc2c(c3ccccc3n2Cc2ccc(C(=O)NO)cc2)C1 [Tubastatin A]
How it was run: (§1)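 Aliquots of K562 cells (2×10^6 cells/mL) treated with 10 μM compound for 30 min were heated for 3 min over 48°C-58°C. After pooling and extraction in PBS with 0.5% NP-40 at 4°C, soluble protein from a 21,000xg, 90 min spin was quantified by TMTpro 16plex LC-MS/MS with channel sums equalised. Thermal stability is expressed against control samples, from duplicates, as a log2 fold change.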

[1] = compound: COc1cc2nc(-c3cc(F)ccc3O)nc(N[C@@H]3CNC[C@H]3C(C)(C)O)c2cc1OC
How it was run: as §1

lapatinib = compound: CS(=O)(=O)CCNCc1ccc(-c2ccc3ncnc(Nc4ccc(OCc5cccc(F)c5)c(Cl)c4)c3c2)o1 [lapatinib]
How it was run: as §1

alvocidib = compound: CN1CC[C@H](c2c(O)cc(O)c3c(=O)cc(-c4ccccc4Cl)oc23)[C@H](O)C1 [alvocidib]
How it was run: as §1

[2] = compound: CNC(=O)C1=CC=CC=C1NC2=NC(=NC=C2Cl)NC3=C(C=C(C=C3)N4CCOCC4)OC
How it was run: as §1

defactinib = compound: CNC(=O)c1ccc(Nc2ncc(C(F)(F)F)c(NCc3nccnc3N(C)S(C)(=O)=O)n2)cc1 [defactinib]
How it was run: as §1

[3] = compound: COC(=O)[C@H](CCSC)NC(=O)C1=C(C=C(C=C1)NC[C@H](CS)N)C2=CC=CC=C2
How it was run: as §1

zotarolimus = compound: CO[C@H]1C[C@@H]2CC[C@@H](C)[C@@](O)(O2)C(=O)C(=O)N2CCCC[C@H]2C(=O)O[C@H]([C@H](C)C[C@@H]2CC[C@H](n3cnnn3)[C@H](OC)C2)CC(=O)[C@H](C)/C=C(\C)[C@@H](O)[C@@H](OC)C(=O)[C@H](C)C[C@H](C)/C=C/C=C/C=C/1C [zotarolimus]
How it was run: as §1

saracatinib = compound: CN1CCN(CCOc2cc(OC3CCOCC3)c3c(Nc4c(Cl)ccc5c4OCO5)ncnc3c2)CC1 [saracatinib]
How it was run: as §1

rucaparib = compound: CNCc1ccc(-c2[nH]c3cc(F)cc4c3c2CCNC4=O)cc1 [rucaparib]
How it was run: as §1

[4] = compound: CNc1nc(-c2ccc3c(N)n[nH]c3c2)cc(N2C[C@@H](C(=O)NC3CCCCC3)CC[C@H]2C)n1
How it was run: as §1

encorafenib = compound: COC(=O)N[C@@H](C)CNc1nccc(-c2cn(C(C)C)nc2-c2cc(Cl)cc(NS(C)(=O)=O)c2F)n1 [encorafenib]
How it was run: as §1

[5] = compound: COC1=CC=C(C=C1)CN2C=CC3=C2C=C(C=C3)C(=O)NO
How it was run: as §1

idasanutlin = compound: COc1cc(C(=O)O)ccc1NC(=O)[C@@H]1N[C@@H](CC(C)(C)C)[C@](C#N)(c2ccc(Cl)cc2F)[C@H]1c1cccc(Cl)c1F [idasanutlin]
How it was run: as §1

alisertib = compound: COc1cc(Nc2ncc3c(n2)-c2ccc(Cl)cc2C(c2c(F)cccc2OC)=NC3)ccc1C(=O)O [alisertib]
How it was run: as §1

[6] = compound: COc1cccc2cc(-c3nc([C@H]4CC[C@H](C(=O)O)CC4)n4ncnc(N)c34)[nH]c12
How it was run: as §1

pictilisib = compound: CS(=O)(=O)N1CCN(Cc2cc3nc(-c4cccc5[nH]ncc45)nc(N4CCOCC4)c3s2)CC1 [pictilisib]
How it was run: as §1

sotrastaurin = compound: CN1CCN(c2nc(C3=C(c4c[nH]c5ccccc45)C(=O)NC3=O)c3ccccc3n2)CC1 [sotrastaurin]
How it was run: as §1

filanesib = compound: CON(C)C(=O)N1N=C(c2cc(F)ccc2F)S[C@@]1(CCCN)c1ccccc1 [filanesib]
How it was run: as §1

gefitinib = compound: COc1cc2ncnc(Nc3ccc(F)c(Cl)c3)c2cc1OCCCN1CCOCC1 [gefitinib]
How it was run: as §1

Measured: log2 fold change

MEGF10 (UniProt Q96KG7)
inactive: Tubastatin A -0.1 | [1] -0.044 | lapatinib 0.136

MED13L (UniProt Q71F56)
inactive: alvocidib 0.025 | [2] -0.012 | defactinib -0.08 | [3] 0 | zotarolimus -0.065 | [1] -0.063 | lapatinib 0.069

MBLAC1 (UniProt A4D2B0)
inactive: saracatinib 0.164 | [2] 0.049 | defactinib 0.003 | rucaparib 0.023 | [4] -0.005 | encorafenib 0.035 | [3] -0.02 | [5] 0.11 | zotarolimus 0.008 | idasanutlin 0.056 | alisertib -0.161 | [1] -0.064 | [6] 0.086 | lapatinib 0.01 | pictilisib 0.043

MEF2A (UniProt Q02078)
inactive: sotrastaurin -0.197 | Tubastatin A 0.066 | [2] -0.016 | rucaparib 0.095 | encorafenib 0.035 | filanesib 0.21 | [1] 0.042 | gefitinib -0.036 | lapatinib 0.07

MFSD9 (UniProt Q8NBP5)
inactive: saracatinib 0.071 | alvocidib -0.027 | [2] -0.1 | [4] -0.141 | zotarolimus -0.027 | alisertib 0.023 | [1] 0.047 | gefitinib 0.273 | [6] 0.147 | lapatinib -0.073

MED11 (UniProt Q9P086)
inactive: Tubastatin A -0.065 | [2] 0.014 | [5] 0.274 | alisertib -0.09 | [6] 0.045

MEX3B (UniProt Q6ZN04)
inactive: Tubastatin A -0.183 | [2] -0.099 | [1] -0.052 | gefitinib 0.13 | lapatinib -0.183

METTL9 (UniProt Q9H1A3)
inactive: saracatinib 0.056 | alvocidib 0.098 | Tubastatin A 0.068 | [2] -0.037 | defactinib -0.086 | [4] -0.24 | [3] -0.028 | zotarolimus 0.113 | idasanutlin 0 | alisertib 0.046 | [1] 0.014 | [6] -0.007 | lapatinib -0.094 | pictilisib -0.061

MBNL1 isoform 5 (UniProt Q9NR56)
inactive: sotrastaurin -0.014 | Tubastatin A -0.032 | rucaparib 0.199 | encorafenib -0.25 | [5] 0.091 | filanesib -0.142 | alisertib -0.038 | gefitinib 0.013 | [6] -0.02

MBIP (UniProt Q9NS73)
inactive: Tubastatin A 0.009 | [2] -0.211 | defactinib 0.107 | [3] 0.003 | [5] -0.025 | idasanutlin 0.001 | alisertib -0.231 | [1] 0.069 | [6] 0.081 | lapatinib 0.012

MIB1 (UniProt Q86YT6)
inactive: sotrastaurin 0.159 | alvocidib -0.034 | Tubastatin A -0.086 | [2] -0.043 | defactinib -0.042 | rucaparib 0.14 | encorafenib -0.146 | [3] -0.105 | [5] -0.298 | filanesib 0.048 | zotarolimus 0.208 | idasanutlin 0.039 | alisertib -0.016 | [6] 0.21 | pictilisib -0.016

METTL26 (UniProt Q96S19)
inactive: [2] 0.151 | rucaparib 0.017 | encorafenib 0.025 | alisertib 0.039 | [1] -0.032 | gefitinib 0 | [6] 0.066 | lapatinib -0.11

MAU2 (UniProt Q9Y6X3)
inactive: sotrastaurin -0.143 | Tubastatin A 0.019 | [2] 0.146 | defactinib -0.099 | [3] -0.041 | filanesib -0.304 | alisertib -0.104 | [1] 0.03 | [6] 0.091 | lapatinib -0.05 | pictilisib 0.215

MEF2A isoform 2 (UniProt Q02078)
inactive: alvocidib -0.078 | defactinib -0.133 | [3] 0.092 | [5] -0.01 | zotarolimus -0.083 | alisertib -0.098 | [1] 0.046 | gefitinib 0.008 | [6] 0.061 | lapatinib 0.055 | pictilisib -0.117

MEGF9 (UniProt Q9H1U4)
inactive: sotrastaurin 0.087 | alvocidib 0.152 | Tubastatin A -0.038 | [2] 0.124 | filanesib -0.029 | zotarolimus 0.159 | pictilisib 0.131

MEGF8 (UniProt Q7Z7M0)
inactive: Tubastatin A 0.029 | rucaparib -0.107 | encorafenib -0.052 | [5] -0.25 | idasanutlin -0.316 | gefitinib 0.106

MCTS2P, A0A3B3IRV3
inactive: gefitinib 0.022

MFSD1 isoform 6 (UniProt Q9H3U5)
inactive: sotrastaurin -0.041 | Tubastatin A -0.039 | [2] 0.066 | defactinib 0.046 | rucaparib -0.014 | encorafenib -0.028 | [3] -0.004 | filanesib -0.123 | zotarolimus -0.108 | idasanutlin -0.01 | alisertib -0.035 | [1] 0.019 | gefitinib -0.021 | [6] 0.181 | lapatinib -0.026 | pictilisib 0.055

MBTPS2 (UniProt O43462)
inactive: saracatinib 0.15 | alvocidib -0.037 | Tubastatin A -0.108 | [2] -0.054 | defactinib 0.093 | [4] 0.03 | [3] -0.016 | [5] -0.13 | zotarolimus 0.203 | [1] -0.544 | gefitinib 0.025 | lapatinib 0.163 | pictilisib 0.168

MED21 (UniProt Q13503)
inactive: alvocidib -0.249 | Tubastatin A -0.109 | rucaparib -0.018 | encorafenib -0.207 | zotarolimus 0.091 | idasanutlin 0.199 | alisertib 0.012 | [1] -0.132 | gefitinib -0.396 | [6] -0.026 | lapatinib -0.089 | pictilisib -0.075

MGRN1 isoform 2 (UniProt O60291)
inactive: Tubastatin A 0.197 | [2] -0.054 | [5] -0.015 | zotarolimus -0.017 | idasanutlin -0.108 | [1] 0.069 | lapatinib -0.238 | pictilisib -0.004

METTL15 (UniProt A6NJ78)
inactive: saracatinib -0.067 | Tubastatin A 0.076 | [4] 0.13 | idasanutlin -0.228

MED29 (UniProt Q9NX70)
inactive: saracatinib -0.033 | [2] 0.004 | [4] 0.001 | idasanutlin 0.1 | alisertib -0.571 | gefitinib 0.058 | [6] 0.115 | lapatinib -0.028
active: [1] -0.77

MBNL2 (UniProt Q5VZF2)
inactive: [2] 0.037 | [5] -0.303 | idasanutlin 0 | [1] 0.055 | lapatinib -0.031 | pictilisib -0.038

MCOLN3 (UniProt Q8TDD5)
inactive: Tubastatin A -0.001 | [2] -0.141 | rucaparib -0.275 | encorafenib -0.026 | alisertib 0.058 | [1] 0.068 | gefitinib -0.04 | [6] -0.035 | lapatinib -0.02 | pictilisib 0.044

MED19 (UniProt A0JLT2)
inactive: sotrastaurin -0.014 | defactinib 0.069 | rucaparib 0.209 | encorafenib 0.042 | [3] -0.15 | [5] 0.365 | filanesib 0.437 | alisertib -0.052 | gefitinib -0.118 | [6] -0.132 | pictilisib 0.415

MEF2C isoform 2 (UniProt Q06413)
inactive: Tubastatin A 0.015 | rucaparib -0.031 | encorafenib 0.13

MASP1 isoform 2 (UniProt P48740)
inactive: sotrastaurin 0.084 | alvocidib -0.008 | filanesib -0.178 | zotarolimus 0.019 | pictilisib -0.143

MEIS2 (UniProt O14770)
inactive: saracatinib -0.092 | alvocidib -0.169 | [2] -0.074 | [4] -0.017 | [5] -0.215 | zotarolimus 0.066 | idasanutlin -0.009 | [1] 0.082 | lapatinib -0.05 | pictilisib 0.073

MATK isoform 2 (UniProt P42679)
inactive: saracatinib -0.008 | alvocidib 0.17 | defactinib -0.03 | [4] 0.177 | [3] -0.173 | zotarolimus -0.035 | gefitinib -0.02

MED6 (UniProt O75586)
inactive: sotrastaurin 0.159 | alvocidib -0.132 | [2] -0.032 | defactinib 0.025 | rucaparib -0.035 | encorafenib -0.045 | [3] 0.044 | [5] 0.183 | filanesib -0.189 | zotarolimus 0.036 | alisertib -0.005 | gefitinib -0.105 | [6] 0.126 | pictilisib 0.066

METTL7B (UniProt Q6UX53)
inactive: [2] -0.011 | idasanutlin 0.095 | pictilisib 0.117

MFSD8 (UniProt Q8NHS3)
inactive: saracatinib 0.078 | Tubastatin A 0.023 | [2] -0.003 | defactinib -0.008 | rucaparib 0.039 | [4] -0.053 | encorafenib 0.012 | [3] 0.003 | [5] -0.236 | zotarolimus -0.062 | idasanutlin -0.019 | alisertib 0.059 | [1] -0.07 | [6] 0.054 | lapatinib 0.025 | pictilisib 0.079

MED9 (UniProt Q9NWA0)
inactive: saracatinib 0.074 | rucaparib 0.013 | [4] 0.027 | encorafenib -0.091 | [5] -0.071 | alisertib -0.117 | gefitinib -0.071 | [6] 0.073 | pictilisib 0.163

Quoted from above (three entries):
MED6 (UniProt O75586)
inactive: sotrastaurin 0.159 | alvocidib -0.132 | [2] -0.032 | defactinib 0.025 | rucaparib -0.035 | encorafenib -0.045 | [3] 0.044 | [5] 0.183 | filanesib -0.189 | zotarolimus 0.036 | alisertib -0.005 | gefitinib -0.105 | [6] 0.126 | pictilisib 0.066

METTL7B (UniProt Q6UX53)
inactive: [2] -0.011 | idasanutlin 0.095 | pictilisib 0.117

MFSD8 (UniProt Q8NHS3)
inactive: saracatinib 0.078 | Tubastatin A 0.023 | [2] -0.003 | defactinib -0.008 | rucaparib 0.039 | [4] -0.053 | encorafenib 0.012 | [3] 0.003 | [5] -0.236 | zotarolimus -0.062 | idasanutlin -0.019 | alisertib 0.059 | [1] -0.07 | [6] 0.054 | lapatinib 0.025 | pictilisib 0.079

Later entries:

MEX3C (UniProt Q5U5Q3)
inactive: alisertib 0.181 | [6] -0.063

METTL17 isoform 3 (UniProt Q9H7H0)
inactive: sotrastaurin -0.055 | alvocidib 0.038 | rucaparib 0.05 | encorafenib -0.044 | filanesib 0.162 | zotarolimus 0.003 | idasanutlin 0.056 | alisertib -0.078 | [1] 0.149 | [6] 0.059 | lapatinib 0.059
